Results taken from US20110171220A1.
These are yes or no findings as the source states them, for the method shown. Some entries that bind do so weakly or less than the wild type.

Protein sequences, listed by entry. Tags and fused reporters are not part of them. Lines headed by an entry give the natural chain unless they say otherwise; changes in a name come on top.
UniProt Q15116: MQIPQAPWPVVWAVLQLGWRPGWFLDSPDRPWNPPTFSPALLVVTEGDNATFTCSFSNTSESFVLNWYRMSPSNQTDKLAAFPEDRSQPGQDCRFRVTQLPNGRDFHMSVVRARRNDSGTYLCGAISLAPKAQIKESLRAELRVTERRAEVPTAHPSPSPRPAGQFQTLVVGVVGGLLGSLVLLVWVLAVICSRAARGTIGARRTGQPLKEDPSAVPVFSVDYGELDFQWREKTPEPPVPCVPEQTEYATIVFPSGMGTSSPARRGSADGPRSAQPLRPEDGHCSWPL
UniProt P31041: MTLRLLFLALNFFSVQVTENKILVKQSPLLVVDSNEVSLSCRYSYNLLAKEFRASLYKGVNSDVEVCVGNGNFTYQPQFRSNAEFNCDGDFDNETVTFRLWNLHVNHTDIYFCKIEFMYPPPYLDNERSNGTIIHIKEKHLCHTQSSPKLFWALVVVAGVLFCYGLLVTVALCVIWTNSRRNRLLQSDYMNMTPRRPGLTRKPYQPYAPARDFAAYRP

Columns and labels:
[1] = biological target: T1, human PD-1 extracellular region with the transmembrane and intracellular regions of murine CD28, expressed on HEK-293T cells (wild type) (human; mouse) (UniProt Q15116+P31041); assay: antibody binding analysis on HEK 293T cells expressing PD-1 and its single-residue mutants
[2] = biological target: T1, human PD-1 extracellular region with the transmembrane and intracellular regions of murine CD28, expressed on HEK-293T cells (wild type) (human; mouse); assay: flow cytometry on transfected HEK-293T cells

| binding [1] | binding [2] | Binder |
| --- | --- | --- |
| binds | binds | Clone 10 anti-PD-1 antibody (antibody, IgG1, V domains shown) VH: DVQLQESGPGLVKPSQSLSLTCTVTGYSITSDYAWNWIRQFPGNKLEWMGYINYSGSTSYNPSLKSRISITRDTSKNQFFLQLNSVTTEDTATYYCARWIGSSAWYFDVWGAGTTVTV VL: DVLMTQTPLSLPVSLGDQASISCRSGQNIVHSNGNTYLEWYLQKPGQSPKLLIYKVSNRFFGVPDRISGSGSGTDFTLKISRVEAEDLGVYFCFQGSHVPFTFGSGTKLEIK |
| binds | – | Clone 2 anti-PD-1 antibody (antibody, V domains shown) VH: QVQLQQPGAELVKPGASVKLSCKASGYTFTTYYLYWVRQRPGQGLEWIGGINPSNGGTNFNEKFKSKATLTVDKSSSTAYMQLNSLTSEDSAVYYCTRRDYRYDRGFDYWGQGTSVTV VL: DIVLTQSPASLAVSLGQRATISCRASKSVSTSGFNYIHWYQQKPGQPPKLLIYLASNLESGVPARFSGSGSGTDFTLNIHPVEDEDAATYYCQHSRELPLTFGAGTKLEIK |
| – | binds | Clone 19 anti-PD-1 antibody (antibody, IgG1, V domains shown) VH: QVQLQQSGAELVKPGASVKMSCKAFGYTFTTYPIEWMKQNHGKSLEWIGNFHPYNDDTKYNEKFKGKAKLTVEKSSTTVYLELSRLTSDDSAVYYCARENYGSHGGFVYWGQGTLVTV VL: ENVLTQSPAIMSASPGEKVTMTCRASSSVISSYLHWYQQKSGASPKLWIYSTSNLASGVPDRFSGSGSGTSYSLTISSVEAEDAATYYCQQYNGYPLTFGAGTKLEIK |
